# Results are given in words; binding and its absence hold for the method and conditions named. A result given as binding can be weak or reduced; the word gives no strength. For some assays here: Binding seen in cells or lysates may run through a third protein. For some assays here: Tags and fused reporters may be left off the sequences shown.
# T1: HA-tagged mouse NSMCE4A (mouse) (UniProt G3XA30)
# T1 sequence: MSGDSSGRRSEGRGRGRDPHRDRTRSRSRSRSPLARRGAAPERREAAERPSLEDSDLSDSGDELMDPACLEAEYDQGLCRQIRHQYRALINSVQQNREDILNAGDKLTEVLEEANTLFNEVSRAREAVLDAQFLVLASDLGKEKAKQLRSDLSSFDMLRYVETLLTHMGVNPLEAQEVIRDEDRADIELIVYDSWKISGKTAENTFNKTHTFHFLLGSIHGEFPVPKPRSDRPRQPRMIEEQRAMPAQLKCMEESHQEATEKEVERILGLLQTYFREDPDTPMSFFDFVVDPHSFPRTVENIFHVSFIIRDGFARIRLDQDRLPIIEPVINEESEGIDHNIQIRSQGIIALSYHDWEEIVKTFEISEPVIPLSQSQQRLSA
# T2: NSMCE4A bait (full length, mouse) (mouse) (UniProt G3XA30)
# T2 sequence: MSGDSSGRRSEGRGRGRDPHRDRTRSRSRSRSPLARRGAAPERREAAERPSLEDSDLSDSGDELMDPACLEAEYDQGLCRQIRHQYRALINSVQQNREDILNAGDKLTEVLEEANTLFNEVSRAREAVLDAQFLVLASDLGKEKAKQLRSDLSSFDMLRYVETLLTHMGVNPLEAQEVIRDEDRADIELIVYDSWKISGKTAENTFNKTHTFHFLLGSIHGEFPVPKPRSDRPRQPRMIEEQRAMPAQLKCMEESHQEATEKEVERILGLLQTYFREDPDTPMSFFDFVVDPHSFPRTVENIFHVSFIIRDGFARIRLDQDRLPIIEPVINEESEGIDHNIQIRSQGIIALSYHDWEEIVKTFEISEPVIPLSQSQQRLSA
# Tests used:
# [1] = biological target: T1, HA-tagged mouse NSMCE4A (mouse); experiment: co-IP; FLAG-tagged GPS1 and HA-tagged NSMCE4A expressed or co-expressed in HEK 293T cells; anti-FLAG or anti-HA antibody coupled to Dynabeads; lysis buffer with 100 mM NaCl, 1 mM DTT; western blot
# [2] = biological target: T2, NSMCE4A bait (full length, mouse) (mouse); experiment: two-hybrid; full length NSMCE4A bait against defined GPS1 prey constructs; growth on SD -Leu -Trp with 200 ng/ml Aureobasidin A, -Ade or -His
# [3] = biological target: FLAG-tagged mouse GPS1 (mouse); experiment: co-IP; FLAG-tagged GPS1 and HA-tagged NSMCE4A expressed or co-expressed in HEK 293T cells; anti-FLAG or anti-HA antibody coupled to Dynabeads; lysis buffer with 100 mM NaCl, 1 mM DTT; western blot
Molecule,binding [2],binding [3],other results
FLAG-tagged mouse GPS1,,,binding [1]: binds
"HA-tagged mouse NSMCE4A (protein, UniProt G3XA30 1-381) MSGDSSGRRSEGRGRGRDPHRDRTRSRSRSRSPLARRGAAPERREAAERPSLEDSDLSDSGDELMDPACLEAEYDQGLCRQIRHQYRALINSVQQNREDILNAGDKLTEVLEEANTLFNEVSRAREAVLDAQFLVLASDLGKEKAKQLRSDLSSFDMLRYVETLLTHMGVNPLEAQEVIRDEDRADIELIVYDSWKISGKTAENTFNKTHTFHFLLGSIHGEFPVPKPRSDRPRQPRMIEEQRAMPAQLKCMEESHQEATEKEVERILGLLQTYFREDPDTPMSFFDFVVDPHSFPRTVENIFHVSFIIRDGFARIRLDQDRLPIIEPVINEESEGIDHNIQIRSQGIIALSYHDWEEIVKTFEISEPVIPLSQSQQRLSA",,binds,
"NSMCE1 (protein, UniProt Q8WV22 1-266) MQGSTRRMGVMTDVHRRFLQLLMTHGVLEEWDVKRLQTHCYKVHDRNATVDKLEDFINNINSVLESLYIEIKRGVTEDDGRPIYALVNLATTSISKMATDFAENELDLFRKALELIIDSETGFASSTNILNLVDQLKGKKMRKKEAEQVLQKFVQNKWLIEKEGEFTLHGRAILEMEQYIRETYPDAVKICNICHSLLIQGQSCETCGIRMHLPCVAKYFQSNAEPRCPHCNDYWPHEIPKVFDPEKERESGVLKSNKKSLRSRQH",,binds,

# More lines, main results first:
binding [2],binding [3],Molecule,other results
binds weakly,,"GPS1, 1–526 aa (full-length prey) (mouse)",
binds,,"GPS1, 77–526 aa (prey) (mouse) (domain or fragment)",

# From PMC7206739
